In paper PMC12523843, “Kuwanon A Targeted YWHAB in Hepatocellular Carcinoma Cells to Inhibit the Raf/MEK/ERK Signaling Pathway” (Cells, 2025):
No constants are given. Whether binding was seen depends on the method and setting. Binding seen in cells or lysates may run through a third protein. Some entries that bind do so weakly or less than the wild type. Tags and fused reporters may be left off the sequences shown.

Biological target: T1, FLAG-YWHAB, P31946
T1 chain: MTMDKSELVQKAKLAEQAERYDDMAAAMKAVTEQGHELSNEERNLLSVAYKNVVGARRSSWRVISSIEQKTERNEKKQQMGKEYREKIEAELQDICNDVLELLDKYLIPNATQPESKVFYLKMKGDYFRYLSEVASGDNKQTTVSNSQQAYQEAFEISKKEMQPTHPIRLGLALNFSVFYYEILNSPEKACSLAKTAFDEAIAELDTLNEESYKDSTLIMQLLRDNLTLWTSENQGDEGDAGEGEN
Experiment: co-IP; HEK 293T cells overexpressing both tagged proteins; pulled down by anti-FLAG antibody, immunoblotted with anti-MYC antibody; cells treated with DMSO or 25 and 30 uM KA (less co-precipitate with KA)
Settings: remark: other sources report otherwise

B1: MYC-YWHAB, P31946 1-246 (protein)
chain: MTMDKSELVQKAKLAEQAERYDDMAAAMKAVTEQGHELSNEERNLLSVAYKNVVGARRSSWRVISSIEQKTERNEKKQQMGKEYREKIEAELQDICNDVLELLDKYLIPNATQPESKVFYLKMKGDYFRYLSEVASGDNKQTTVSNSQQAYQEAFEISKKEMQPTHPIRLGLALNFSVFYYEILNSPEKACSLAKTAFDEAIAELDTLNEESYKDSTLIMQLLRDNLTLWTSENQGDEGDAGEGEN
With B1 the binding was “binds”.
